In PubChem BioAssay AID493014 (National Center for Advancing Translational Sciences (NCATS), 2011):
In all, about 340,000 compounds went through this assay and about 170 (0.05%) were called active. The shares of active, inactive and inconclusive entries below differ from those in the screen. Calls follow the shape of the dose curve; as a rule, active = well fitted inhibition curve with a large enough effect in the signal ratio, with a control signal flat (not every such curve was filed as active); inconclusive = small, poorly fitted or top-dose-only effect, or effect the other way, or a change in a side signal; inactive = flat fitted curve, though single readings scatter; the % refers to the signal ratio. Potencies beside an inconclusive call are fits to weak or partial responses and may not hold up.

Assay: qHTS Assay to Find Inhibitors of Chronic Active B-Cell Receptor Signaling;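 as to activity change, negative = inhibition: plate controls were basal doxycycline-induced cells for no effect and cells given 10 µM MG132 for full effect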
Settings: ABC-DLBCL IkBa-CBG/CBR reporter, luminescence ratio (green luciferase fused to IkBa over red control in TMD8 lymphoma cells), 4 h; activity change, negative = inhibition: at 46.1 µM (top of the series)
Summary of the method: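 Compounds up to 46 uM were incubated four hours with TMD8 cells whose green CBG68 luciferase is fused to IkappaBalpha; red CBR luminescence normalised the signal, and concentration-effect curves were fitted to fusion, red and ratio data.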
Potency is read from the fitted curve at half-maximal effect.

Question: For CCc1ccc(C2CC(=O)N3CN(c4ccccc4)CSC3=C2C#N)cc1 (centres undefined), which activity change, negative = inhibition is on record?
Answer: Its activity change, negative = inhibition is “inactive”.

Question: Which activity change, negative = inhibition does the source give for c1cc(N2CCCC2)ccc1C(c1nnnn1C1CCCCC1)N1CCOCC1 (centres undefined) here?
Answer: The activity change, negative = inhibition was “inactive”.

Question: With CCn1c(CO)nc2c1c(=O)[nH]c(=O)n2Cc1ccccc1 as the molecule, how does the activity change, negative = inhibition read?
Answer: The activity change, negative = inhibition was inconclusive: 1.39%.

Question: With Cc1cc(C(=O)Nc2sc3c(c2C#N)CCC(C)C3)no1 (centres undefined) as the molecule, how does the activity change, negative = inhibition read?
Answer: The activity change, negative = inhibition was inconclusive: 14.5%.

Question: With Nc1nn(-c2ccccc2)nc1C(=O)OCc1ccccc1 as the molecule, how does the activity change, negative = inhibition read?
Answer: The activity change, negative = inhibition was inconclusive: -1.61%.

Question: With N/C(CN1CCCC1=O)=N\OC(=O)c1ccc(Cl)cc1 as the molecule, how does the activity change, negative = inhibition read?
Answer: Its activity change, negative = inhibition is inconclusive: -0.28%.

Question: Which activity change, negative = inhibition does the source give for COc1ccc(C2C(C(=O)c3cccs3)=C(O)C(=O)N2Cc2cccnc2)cc1OC (centres undefined) here?
Answer: Its activity change, negative = inhibition is inconclusive: -26.1%.

Question: With COc1ccc2c(c1)[nH]c1c(=O)n(CCC3=CCCCC3)cnc12 as the molecule, how does the activity change, negative = inhibition read?
Answer: Its activity change, negative = inhibition is “inactive”.

Question: With CCCCn1c(=O)nc2n(-c3ccc(Br)cc3)c3ccccc3cc-2c1=O as the molecule, how does the activity change, negative = inhibition read?
Answer: The activity change, negative = inhibition was “inactive”.

Question: Which activity change, negative = inhibition does the source give for NC(=O)C1(N2CCCCC2)CCN(c2nc(-c3ccc(Br)cc3)cs2)CC1 here?
Answer: The activity change, negative = inhibition was inconclusive: 10.5%.

Question: With CCN(CC)CCNCc1cc(Br)ccc1OCC(=O)NCc1ccccc1 as the molecule, how does the activity change, negative = inhibition read?
Answer: Its activity change, negative = inhibition is “inactive”.

Question: Which Potency does the source give for Cc1cc(C)cc(N2C(N)=NC(N)=NC2c2cccc(Cl)c2)c1 (centres undefined) here?
Answer: Its Potency is inconclusive: 11.2 µM [falling, single point].

Question: Which activity change, negative = inhibition does the source give for O=C(NCc1cccs1)C(=O)NCC(c1ccco1)N1CCN(c2ccc(F)cc2)CC1 (centres undefined) here?
Answer: Its activity change, negative = inhibition is “inactive”.

Question: For COc1ccccc1N1CCN(C2CCCN(C(=O)CC(F)(F)F)C2)CC1 (centres undefined), which activity change, negative = inhibition is on record?
Answer: The activity change, negative = inhibition was “inactive”.

Question: With O=C(N/N=C/C=C\c1ccccc1[N+](=O)[O-])c1cc(-c2ccc3ccccc3c2)n[nH]1 as the molecule, how does the Potency read?
Answer: Its Potency is inconclusive: 6.51 µM [rising, full curve].

Question: Which activity change, negative = inhibition does the source give for OC(COc1cccc(OCC(O)CN2CCCC2)c1)CN1CCCC1 (centres undefined) here?
Answer: Its activity change, negative = inhibition is inconclusive: 11.4%.

Question: Which activity change, negative = inhibition does the source give for CCC(=O)c1ccc(N2CCN(C(=O)c3ccc(Br)cc3)CC2)c(F)c1 here?
Answer: Its activity change, negative = inhibition is inconclusive: -7.02%.

Question: For COC(=O)c1cccc(NC(=O)CCCN2C(=O)NC3(CCCC3)C2=O)c1, which Potency is on record?
Answer: Its Potency is inconclusive: 7.31 µM [rising, partial curve, poor fit].

Question: For Cc1c(CCC(=O)N2CCC(C(=O)NCCCCCC(=O)O)CC2)c(=O)oc2cc3oc4c(c3cc12)CCCC4, which activity change, negative = inhibition is on record?
Answer: The activity change, negative = inhibition was inconclusive: -17.3%.

Question: For Cn1c(C(=O)N[C@@H](Cc2ccccc2)C(=O)O)cc2cc(F)ccc21, which activity change, negative = inhibition is on record?
Answer: The activity change, negative = inhibition was inconclusive: 5.18%.

Question: Which activity change, negative = inhibition does the source give for Cc1ccccc1NC(=O)CSc1nnc(-c2ccco2)c(-c2ccco2)n1 here?
Answer: Its activity change, negative = inhibition is “inactive”.

Question: With COc1ccc(CCNCC(O)COc2cccc(Br)c2)cc1 (centres undefined) as the molecule, how does the activity change, negative = inhibition read?
Answer: Its activity change, negative = inhibition is inconclusive: -26.6%.

Question: For c1csc(CNc2ccc3c(c2)OCCO3)c1, which Potency is on record?
Answer: The Potency was inconclusive: 29.1 µM [falling, single point].

Question: With O=C(Nc1ccccc1)Nc1ccc2ncoc2c1 as the molecule, how does the Potency read?
Answer: The Potency was inconclusive: 17.8 µM [falling, partial curve].

Question: For Cc1ccc(C(=O)NCC(=O)OC(C)C(=O)Nc2ccc(N(C)C)cc2)s1 (centres undefined), which activity change, negative = inhibition is on record?
Answer: The activity change, negative = inhibition was inconclusive: 6.67%.

Question: With COc1ccccc1Nc1nc2c(s1)CCC2 as the molecule, how does the activity change, negative = inhibition read?
Answer: The activity change, negative = inhibition was inconclusive: 6.31%.

Question: With CCCn1c(NC(=O)C2CCN(C(=O)c3ccc(F)cc3)CC2)nc2ccccc21 as the molecule, how does the Potency read?
Answer: Its Potency is inconclusive: 0.316 µM [falling, full curve, poor fit].

Question: Which activity change, negative = inhibition does the source give for CCc1nc(C)ccc1OCC(=O)O here?
Answer: Its activity change, negative = inhibition is inconclusive: 1.6%.

Question: With COC(=O)c1ccc(C(=O)N2CCCC(Nc3ccc(F)c(F)c3)C2)cc1 (centres undefined) as the molecule, how does the activity change, negative = inhibition read?
Answer: The activity change, negative = inhibition was inconclusive: -1.8%.

Question: For CCCCc1ccc(NC(=O)CSc2nnc3[nH]c(=O)cc(C)n23)cc1, which activity change, negative = inhibition is on record?
Answer: Its activity change, negative = inhibition is “inactive”.

Question: Which activity change, negative = inhibition does the source give for CCCCNC(=O)Nc1cnn(CC)c1C(N)=O here?
Answer: Its activity change, negative = inhibition is inconclusive: 2.46%.

Question: Which activity change, negative = inhibition does the source give for Cc1cc(Cl)ccc1OCC(=O)OCC(=O)N1CCC(C(N)=O)CC1 here?
Answer: The activity change, negative = inhibition was “inactive”.

Question: For O=C(N/N=C/c1ccc(Cl)c([N+](=O)[O-])c1)C1CC1, which activity change, negative = inhibition is on record?
Answer: Its activity change, negative = inhibition is “inactive”.

Question: Which Potency does the source give for O=C(N/N=C/c1ccc(N2CCOCC2)cc1)c1cccs1 here?
Answer: Its Potency is inconclusive: 25.1 µM [falling, single point].

Question: Which activity change, negative = inhibition does the source give for Cc1ccc(S(=O)(=O)c2nc(S(=O)(=O)c3ccc(C)cc3)c(NCc3ccco3)s2)cc1 here?
Answer: The activity change, negative = inhibition was inconclusive: 14.9%.

Question: For COc1ccc(C[C@H]2CN3C(=NC[C@@H]3Cc3ccccc3)N2C[C@H](C)NC(=O)CCC2CCCCC2)cc1, which activity change, negative = inhibition is on record?
Answer: Its activity change, negative = inhibition is “inactive”.

Question: For Cc1cccc(C(=O)N/N=C/c2cc(Br)c(Br)o2)c1, which Potency is on record?
Answer: Its Potency is inconclusive: 32.6 µM [falling, partial curve, poor fit].

Question: Which activity change, negative = inhibition does the source give for Cc1cccc(N(CC(=O)Nc2ccc(-c3nc4ccc(C)cc4s3)cc2)S(C)(=O)=O)c1 here?
Answer: The activity change, negative = inhibition was inconclusive: 7.9%.

Question: Which activity change, negative = inhibition does the source give for CCC(C)NC(=O)CSc1nc2cc3c(cc2c(=O)n1CCCCCC(=O)NCc1ccc(OC)cc1)OCO3 (centres undefined) here?
Answer: The activity change, negative = inhibition was inconclusive: -18.5%.

Question: With Cc1nc2ccccc2nc1N/N=C/c1ccc(O)cc1 as the molecule, how does the activity change, negative = inhibition read?
Answer: The activity change, negative = inhibition was inconclusive: -2.09%.

Question: For Cc1sc2ncn(CCn3cnc4sc(C)c(C)c4c3=O)c(=O)c2c1C, which activity change, negative = inhibition is on record?
Answer: The activity change, negative = inhibition was inconclusive: -1.04%.

Question: With COc1cc2c(cc1OC)C(COc1ccccc1OC)N(C(=O)c1ccccc1OC)CC2 (centres undefined) as the molecule, how does the activity change, negative = inhibition read?
Answer: Its activity change, negative = inhibition is “inactive”.

Question: With Cc1cc(C)c(NC(=O)Cn2c(=O)n(Cc3ccccc3)c(=O)c3c(C)c(C(=O)N(C)C)sc32)c(C)c1 as the molecule, how does the Potency read?
Answer: The Potency was inconclusive: 2.24 µM [falling, partial curve, poor fit].

Question: With CC1CCCN(CCCOc2ccc(Cl)cc2Br)C1 (centres undefined) as the molecule, how does the activity change, negative = inhibition read?
Answer: Its activity change, negative = inhibition is inconclusive: -3.52%.

Question: With Cc1ccc(C(=O)N2c3ccccc3CC2C)o1 (centres undefined) as the molecule, how does the activity change, negative = inhibition read?
Answer: Its activity change, negative = inhibition is “inactive”.

Question: For COCCCN1CCN(C2Cc3ccccc3Sc3ccc(Cl)cc32)CC1 (centres undefined), which activity change, negative = inhibition is on record?
Answer: Its activity change, negative = inhibition is inconclusive: -17%.

Question: With CCOCCCNC(=O)C1(O)c2ccccc2NC(=O)N1c1ccc(Cl)cc1 (centres undefined) as the molecule, how does the activity change, negative = inhibition read?
Answer: The activity change, negative = inhibition was inconclusive: 9.13%.

Question: For COc1ccccc1N1CCN(S(=O)(=O)c2ccc(-c3cnc(C4CC4)o3)cc2)CC1, which activity change, negative = inhibition is on record?
Answer: Its activity change, negative = inhibition is inconclusive: 7.08%.

Question: With CN(C)c1ccc(P(=O)(OCc2ccccc2)C(O)c2ccncc2)cc1 (centres undefined) as the molecule, how does the activity change, negative = inhibition read?
Answer: The activity change, negative = inhibition was inconclusive: -2.49%.

Question: Which activity change, negative = inhibition does the source give for CCOC(=O)Oc1ccc2c(=O)c(Oc3cccc(C)c3)coc2c1 here?
Answer: The activity change, negative = inhibition was inconclusive: -4.54%.

Question: With Cc1ccc2[nH]c3c(=O)n(CCc4cnc[nH]4)cnc3c2c1 as the molecule, how does the activity change, negative = inhibition read?
Answer: The activity change, negative = inhibition was inconclusive: 318%.

Question: With O=c1c(Cc2ccc(Cl)cc2)c(O)ccn1Cc1cccc(Cl)c1 as the molecule, how does the activity change, negative = inhibition read?
Answer: The activity change, negative = inhibition was “inactive”.

Question: With O=C(COc1ccc(Cl)cc1Cl)N/N=C/c1ccccn1 as the molecule, how does the activity change, negative = inhibition read?
Answer: Its activity change, negative = inhibition is inconclusive: -7.83%.

Question: Which activity change, negative = inhibition does the source give for COc1ccccc1NC(=O)C1CCN(S(=O)(=O)c2ccc3c(c2)NC(=O)C(C)S3)CC1 (centres undefined) here?
Answer: Its activity change, negative = inhibition is inconclusive: 0.451%.
